The target in test [1] is GST-fused FAK (in HUVECs), Q05397. Put plainly: pull-down; GST-FAK pulled down from HUVECs expressing it, endogenous FAK detected; cells treated with DMSO, itraconazole (3 μM) or TNP (5 μM) for 24 h. The note with it: remark: other sources report otherwise.
For test [2], the target named is flag-tagged FAK (from HEK293 cells, on beads), Q05397. In words: pull-down; in vitro protein binding assay: flag-FAK immobilised on protein A/G beads by anti-flag antibody, purified GST-FAK added in the presence of InsP6, 5-InsP7, 5-PCP or CF2, overnight at 4 °C; both purified. The settings on record: remark: other sources report otherwise.

The record followed here is article PMC7614367, “Itraconazole inhibits endothelial cell migration by disrupting inositol pyrophosphate-dependent focal adhesion dynamics and cytoskeletal remodeling” (Biomedicine & Pharmacotherapy, 2023).

These are yes or no findings as the source states them, for the method shown. For some assays here: Binding seen in cells or lysates may run through a third protein. Some results given as binding are weak or reduced against the parent protein; the word gives no strength. For some assays here: Tags and fused reporters may be left off the sequences shown.

B1: endogenous FAK (HUVECs), Q05397 1-1052 (enzyme)
chain: MAAAYLDPNLNHTPNSSTKTHLGTGMERSPGAMERVLKVFHYFESNSEPTTWASIIRHGDATDVRGIIQKIVDSHKVKHVACYGFRLSHLRSEEVHWLHVDMGVSSVREKYELAHPPEEWKYELRIRYLPKGFLNQFTEDKPTLNFFYQQVKSDYMLEIADQVDQEIALKLGCLEIRRSYWEMRGNALEKKSNYEVLEKDVGLKRFFPKSLLDSVKAKTLRKLIQQTFRQFANLNREESILKFFEILSPVYRFDKECFKCALGSSWIISVELAIGPEEGISYLTDKGCNPTHLADFTQVQTIQYSNSEDKDRKGMLQLKIAGAPEPLTVTAPSLTIAENMADLIDGYCRLVNGTSQSFIIRPQKEGERALPSIPKLANSEKQGMRTHAVSVSETDDYAEIIDEEDTYTMPSTRDYEIQRERIELGRCIGEGQFGDVHQGIYMSPENPALAVAIKTCKNCTSDSVREKFLQEALTMRQFDHPHIVKLIGVITENPVWIIMELCTLGELRSFLQVRKYSLDLASLILYAYQLSTALAYLESKRFVHRDIAARNVLVSSNDCVKLGDFGLSRYMEDSTYYKASKGKLPIKWMAPESINFRRFTSASDVWMFGVCMWEILMHGVKPFQGVKNNDVIGRIENGERLPMPPNCPPTLYSLMTKCWAYDPSRRPRFTELKAQLSTILEEEKAQQEERMRMESRRQATVSWDSGGSDEAPPKPSRPGYPSPRSSEGFYPSPQHMVQTNHYQVSGYPGSHGITAMAGSIYPGQASLLDQTDSWNHRPQEIAMWQPNVEDSTVLDLRGIGQVLPTHLMEERLIRQQQEMEEDQRWLEKEERFLKPDVRLSRGSIDREDGSLQGPIGNQHIYQPVGKPDPAAPPKKPPRPGAPGHLGSLASLSSPADSYNEGVKLQPQEISPPPTANLDRSNDKVYENVTGLVKAVIEMSSKIQPAPPEEYVPMVKEVGLALRTLLATVDETIPLLPASTHREIEMAQKLLNSDLGELINKMKLAQQYVMTSLQQEYKKQMLTAAHALAVDAKNLLDVIDQARLKMLGQTRPH
For B1, the binding result in test [1] was “binds”.

B2: GST-fused FAK (purified from HEK293 cells), Q05397 1-1052 (enzyme)
chain: MAAAYLDPNLNHTPNSSTKTHLGTGMERSPGAMERVLKVFHYFESNSEPTTWASIIRHGDATDVRGIIQKIVDSHKVKHVACYGFRLSHLRSEEVHWLHVDMGVSSVREKYELAHPPEEWKYELRIRYLPKGFLNQFTEDKPTLNFFYQQVKSDYMLEIADQVDQEIALKLGCLEIRRSYWEMRGNALEKKSNYEVLEKDVGLKRFFPKSLLDSVKAKTLRKLIQQTFRQFANLNREESILKFFEILSPVYRFDKECFKCALGSSWIISVELAIGPEEGISYLTDKGCNPTHLADFTQVQTIQYSNSEDKDRKGMLQLKIAGAPEPLTVTAPSLTIAENMADLIDGYCRLVNGTSQSFIIRPQKEGERALPSIPKLANSEKQGMRTHAVSVSETDDYAEIIDEEDTYTMPSTRDYEIQRERIELGRCIGEGQFGDVHQGIYMSPENPALAVAIKTCKNCTSDSVREKFLQEALTMRQFDHPHIVKLIGVITENPVWIIMELCTLGELRSFLQVRKYSLDLASLILYAYQLSTALAYLESKRFVHRDIAARNVLVSSNDCVKLGDFGLSRYMEDSTYYKASKGKLPIKWMAPESINFRRFTSASDVWMFGVCMWEILMHGVKPFQGVKNNDVIGRIENGERLPMPPNCPPTLYSLMTKCWAYDPSRRPRFTELKAQLSTILEEEKAQQEERMRMESRRQATVSWDSGGSDEAPPKPSRPGYPSPRSSEGFYPSPQHMVQTNHYQVSGYPGSHGITAMAGSIYPGQASLLDQTDSWNHRPQEIAMWQPNVEDSTVLDLRGIGQVLPTHLMEERLIRQQQEMEEDQRWLEKEERFLKPDVRLSRGSIDREDGSLQGPIGNQHIYQPVGKPDPAAPPKKPPRPGAPGHLGSLASLSSPADSYNEGVKLQPQEISPPPTANLDRSNDKVYENVTGLVKAVIEMSSKIQPAPPEEYVPMVKEVGLALRTLLATVDETIPLLPASTHREIEMAQKLLNSDLGELINKMKLAQQYVMTSLQQEYKKQMLTAAHALAVDAKNLLDVIDQARLKMLGQTRPH
B2: the binding entry in test [2] was “binds”.
